# Measurements from the supplement of paper PMC10849652.
# Protein sequences, listed by entry. Tags and fused reporters are not part of them. Lines headed by an entry give the natural chain unless they say otherwise; changes in a name come on top.
# UniProt Q9NRL3: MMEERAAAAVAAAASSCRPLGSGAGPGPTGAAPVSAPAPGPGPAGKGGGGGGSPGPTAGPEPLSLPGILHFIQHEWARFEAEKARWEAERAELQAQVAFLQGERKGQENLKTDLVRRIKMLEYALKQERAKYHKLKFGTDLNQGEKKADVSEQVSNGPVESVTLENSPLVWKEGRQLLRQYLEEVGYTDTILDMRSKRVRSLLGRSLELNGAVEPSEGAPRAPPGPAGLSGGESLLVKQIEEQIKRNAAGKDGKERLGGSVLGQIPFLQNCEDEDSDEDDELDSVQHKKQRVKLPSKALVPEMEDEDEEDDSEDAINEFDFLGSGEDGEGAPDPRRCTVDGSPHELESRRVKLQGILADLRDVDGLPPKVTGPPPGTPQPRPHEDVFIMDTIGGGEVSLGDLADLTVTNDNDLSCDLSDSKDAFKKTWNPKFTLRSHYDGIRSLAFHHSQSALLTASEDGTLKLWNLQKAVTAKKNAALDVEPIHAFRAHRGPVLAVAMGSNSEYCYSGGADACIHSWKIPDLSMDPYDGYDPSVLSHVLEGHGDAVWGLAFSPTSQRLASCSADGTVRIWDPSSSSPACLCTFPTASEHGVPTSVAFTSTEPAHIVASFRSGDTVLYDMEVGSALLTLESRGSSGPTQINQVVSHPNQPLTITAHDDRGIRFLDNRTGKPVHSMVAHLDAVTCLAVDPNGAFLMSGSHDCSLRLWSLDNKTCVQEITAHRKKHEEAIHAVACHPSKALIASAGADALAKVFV
# UniProt Q9Y2Z0: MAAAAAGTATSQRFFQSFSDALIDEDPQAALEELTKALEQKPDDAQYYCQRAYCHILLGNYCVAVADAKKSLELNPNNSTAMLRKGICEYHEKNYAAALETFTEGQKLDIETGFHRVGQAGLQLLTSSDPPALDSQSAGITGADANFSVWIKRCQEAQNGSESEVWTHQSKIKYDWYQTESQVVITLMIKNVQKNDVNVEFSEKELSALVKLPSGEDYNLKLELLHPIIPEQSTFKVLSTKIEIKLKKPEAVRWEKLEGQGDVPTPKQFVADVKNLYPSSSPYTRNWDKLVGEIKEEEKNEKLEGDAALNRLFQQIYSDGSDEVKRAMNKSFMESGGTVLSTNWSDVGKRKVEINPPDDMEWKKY
# UniProt P21675, whole entry, looked up: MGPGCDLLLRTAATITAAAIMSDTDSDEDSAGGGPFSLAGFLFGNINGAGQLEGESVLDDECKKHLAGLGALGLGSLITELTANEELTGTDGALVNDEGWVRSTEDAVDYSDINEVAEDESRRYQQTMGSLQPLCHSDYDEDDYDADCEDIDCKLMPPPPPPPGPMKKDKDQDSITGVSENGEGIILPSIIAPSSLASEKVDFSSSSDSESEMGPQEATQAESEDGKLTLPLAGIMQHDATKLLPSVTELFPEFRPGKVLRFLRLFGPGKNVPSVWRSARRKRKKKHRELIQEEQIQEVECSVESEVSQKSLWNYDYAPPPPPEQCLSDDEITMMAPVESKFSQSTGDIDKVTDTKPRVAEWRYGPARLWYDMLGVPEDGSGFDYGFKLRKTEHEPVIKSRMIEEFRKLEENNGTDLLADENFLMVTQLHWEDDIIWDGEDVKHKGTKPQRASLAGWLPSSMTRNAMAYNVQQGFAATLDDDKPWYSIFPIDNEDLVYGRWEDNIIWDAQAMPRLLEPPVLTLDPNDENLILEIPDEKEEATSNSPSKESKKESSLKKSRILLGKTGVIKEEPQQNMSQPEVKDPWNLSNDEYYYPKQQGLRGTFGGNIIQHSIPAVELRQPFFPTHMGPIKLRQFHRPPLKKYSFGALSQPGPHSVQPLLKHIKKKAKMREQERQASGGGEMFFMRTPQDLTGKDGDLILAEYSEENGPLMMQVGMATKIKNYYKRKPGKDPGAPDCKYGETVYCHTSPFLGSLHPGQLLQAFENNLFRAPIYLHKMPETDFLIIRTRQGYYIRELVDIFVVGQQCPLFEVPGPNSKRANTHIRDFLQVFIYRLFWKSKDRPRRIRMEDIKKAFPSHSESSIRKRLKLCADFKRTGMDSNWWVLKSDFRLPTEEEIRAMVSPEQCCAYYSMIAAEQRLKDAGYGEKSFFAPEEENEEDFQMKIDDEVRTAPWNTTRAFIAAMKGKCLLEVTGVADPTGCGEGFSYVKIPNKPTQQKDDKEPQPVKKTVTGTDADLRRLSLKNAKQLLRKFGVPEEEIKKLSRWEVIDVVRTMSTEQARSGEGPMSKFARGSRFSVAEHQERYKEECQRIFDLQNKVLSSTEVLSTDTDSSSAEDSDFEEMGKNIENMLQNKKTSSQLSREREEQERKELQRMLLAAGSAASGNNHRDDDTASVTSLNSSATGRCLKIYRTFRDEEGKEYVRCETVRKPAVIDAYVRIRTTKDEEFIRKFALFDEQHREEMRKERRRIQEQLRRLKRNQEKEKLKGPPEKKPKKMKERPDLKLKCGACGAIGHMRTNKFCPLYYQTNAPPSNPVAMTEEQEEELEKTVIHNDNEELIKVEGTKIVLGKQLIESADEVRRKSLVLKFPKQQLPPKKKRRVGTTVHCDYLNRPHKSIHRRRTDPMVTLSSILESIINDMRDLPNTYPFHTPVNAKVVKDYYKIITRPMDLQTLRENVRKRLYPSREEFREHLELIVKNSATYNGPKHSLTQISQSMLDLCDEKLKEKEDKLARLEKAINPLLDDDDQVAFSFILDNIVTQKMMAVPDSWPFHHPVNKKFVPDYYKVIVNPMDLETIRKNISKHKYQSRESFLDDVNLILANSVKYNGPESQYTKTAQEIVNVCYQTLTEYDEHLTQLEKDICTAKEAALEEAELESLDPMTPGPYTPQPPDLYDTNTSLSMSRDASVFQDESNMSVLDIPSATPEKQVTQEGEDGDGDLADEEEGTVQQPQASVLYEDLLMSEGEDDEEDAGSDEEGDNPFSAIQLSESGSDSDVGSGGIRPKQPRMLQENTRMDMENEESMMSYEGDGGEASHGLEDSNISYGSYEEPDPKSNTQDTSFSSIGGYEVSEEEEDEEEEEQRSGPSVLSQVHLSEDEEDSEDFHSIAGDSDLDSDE
# UniProt O00186: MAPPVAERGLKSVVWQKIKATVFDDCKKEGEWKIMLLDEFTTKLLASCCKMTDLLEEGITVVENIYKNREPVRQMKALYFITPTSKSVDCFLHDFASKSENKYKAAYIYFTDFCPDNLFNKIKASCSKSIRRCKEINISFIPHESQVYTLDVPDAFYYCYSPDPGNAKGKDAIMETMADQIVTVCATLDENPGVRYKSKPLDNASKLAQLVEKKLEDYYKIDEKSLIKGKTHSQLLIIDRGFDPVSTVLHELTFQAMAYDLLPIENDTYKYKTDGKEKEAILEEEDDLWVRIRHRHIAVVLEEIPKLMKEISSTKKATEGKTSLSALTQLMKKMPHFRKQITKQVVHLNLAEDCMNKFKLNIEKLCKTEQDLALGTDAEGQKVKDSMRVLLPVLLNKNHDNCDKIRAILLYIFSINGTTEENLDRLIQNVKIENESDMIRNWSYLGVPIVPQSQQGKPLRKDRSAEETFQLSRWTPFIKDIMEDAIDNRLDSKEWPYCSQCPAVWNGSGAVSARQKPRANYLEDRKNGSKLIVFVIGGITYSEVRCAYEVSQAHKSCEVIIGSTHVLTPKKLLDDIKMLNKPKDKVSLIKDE
# UniProt O94864: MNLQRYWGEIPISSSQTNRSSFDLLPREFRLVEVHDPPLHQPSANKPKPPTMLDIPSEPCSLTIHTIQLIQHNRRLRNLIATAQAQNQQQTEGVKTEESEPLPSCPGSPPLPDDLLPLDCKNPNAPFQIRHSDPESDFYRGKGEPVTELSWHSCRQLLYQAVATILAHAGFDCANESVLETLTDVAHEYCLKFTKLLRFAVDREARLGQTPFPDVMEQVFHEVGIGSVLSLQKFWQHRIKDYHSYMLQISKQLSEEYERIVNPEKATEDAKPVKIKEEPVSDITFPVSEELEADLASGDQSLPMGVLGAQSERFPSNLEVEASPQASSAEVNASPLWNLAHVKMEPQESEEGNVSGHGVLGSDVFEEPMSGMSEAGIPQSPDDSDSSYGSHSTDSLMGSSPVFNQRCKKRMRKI
# UniProt Q15831: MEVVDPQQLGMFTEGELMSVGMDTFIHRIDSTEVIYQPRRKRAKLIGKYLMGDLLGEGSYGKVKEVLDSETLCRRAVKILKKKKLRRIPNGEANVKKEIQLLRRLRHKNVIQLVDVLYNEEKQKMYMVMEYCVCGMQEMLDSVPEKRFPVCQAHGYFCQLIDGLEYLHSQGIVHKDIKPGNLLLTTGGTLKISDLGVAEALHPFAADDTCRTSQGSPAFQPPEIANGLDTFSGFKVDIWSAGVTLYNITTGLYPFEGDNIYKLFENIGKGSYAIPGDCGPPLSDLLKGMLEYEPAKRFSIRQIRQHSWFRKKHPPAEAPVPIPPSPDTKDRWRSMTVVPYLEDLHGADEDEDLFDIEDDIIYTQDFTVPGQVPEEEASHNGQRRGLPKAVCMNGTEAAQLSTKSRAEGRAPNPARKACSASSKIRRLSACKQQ
# UniProt Q13188: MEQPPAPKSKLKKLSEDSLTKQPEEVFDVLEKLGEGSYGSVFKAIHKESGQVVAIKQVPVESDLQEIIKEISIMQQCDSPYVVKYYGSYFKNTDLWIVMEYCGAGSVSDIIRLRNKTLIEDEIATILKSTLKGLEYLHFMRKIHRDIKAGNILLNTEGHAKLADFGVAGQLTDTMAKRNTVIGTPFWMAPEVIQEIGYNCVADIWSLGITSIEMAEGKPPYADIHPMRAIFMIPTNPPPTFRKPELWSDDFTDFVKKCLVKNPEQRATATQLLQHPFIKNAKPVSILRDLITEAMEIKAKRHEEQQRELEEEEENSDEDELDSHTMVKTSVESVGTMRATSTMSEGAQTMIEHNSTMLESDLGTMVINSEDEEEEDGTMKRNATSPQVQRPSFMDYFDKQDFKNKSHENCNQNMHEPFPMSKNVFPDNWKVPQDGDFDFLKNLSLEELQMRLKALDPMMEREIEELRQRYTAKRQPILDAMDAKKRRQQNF
# UniProt Q9UH65: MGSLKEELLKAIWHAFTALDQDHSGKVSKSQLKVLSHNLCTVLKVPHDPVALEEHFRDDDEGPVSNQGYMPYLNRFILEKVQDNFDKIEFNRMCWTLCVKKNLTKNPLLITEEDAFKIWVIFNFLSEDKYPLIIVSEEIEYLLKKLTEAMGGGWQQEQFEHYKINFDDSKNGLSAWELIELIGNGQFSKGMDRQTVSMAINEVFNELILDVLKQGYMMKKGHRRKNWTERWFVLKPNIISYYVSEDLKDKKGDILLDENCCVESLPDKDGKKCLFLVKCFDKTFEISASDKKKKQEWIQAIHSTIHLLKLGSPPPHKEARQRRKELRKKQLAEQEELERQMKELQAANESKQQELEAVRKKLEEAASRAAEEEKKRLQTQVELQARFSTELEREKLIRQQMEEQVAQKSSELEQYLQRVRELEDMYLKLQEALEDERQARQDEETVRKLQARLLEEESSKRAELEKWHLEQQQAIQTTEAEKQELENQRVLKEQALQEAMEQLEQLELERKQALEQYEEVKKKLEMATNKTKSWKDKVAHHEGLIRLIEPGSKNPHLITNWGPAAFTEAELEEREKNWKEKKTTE
# UniProt P50225: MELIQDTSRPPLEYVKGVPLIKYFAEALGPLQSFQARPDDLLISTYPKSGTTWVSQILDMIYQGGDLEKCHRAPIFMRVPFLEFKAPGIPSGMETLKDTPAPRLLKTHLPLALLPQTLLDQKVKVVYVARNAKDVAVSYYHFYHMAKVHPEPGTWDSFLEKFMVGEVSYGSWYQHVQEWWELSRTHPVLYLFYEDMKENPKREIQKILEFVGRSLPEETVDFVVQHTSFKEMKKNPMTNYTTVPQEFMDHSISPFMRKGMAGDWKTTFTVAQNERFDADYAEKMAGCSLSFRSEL
# UniProt Q8NEM7: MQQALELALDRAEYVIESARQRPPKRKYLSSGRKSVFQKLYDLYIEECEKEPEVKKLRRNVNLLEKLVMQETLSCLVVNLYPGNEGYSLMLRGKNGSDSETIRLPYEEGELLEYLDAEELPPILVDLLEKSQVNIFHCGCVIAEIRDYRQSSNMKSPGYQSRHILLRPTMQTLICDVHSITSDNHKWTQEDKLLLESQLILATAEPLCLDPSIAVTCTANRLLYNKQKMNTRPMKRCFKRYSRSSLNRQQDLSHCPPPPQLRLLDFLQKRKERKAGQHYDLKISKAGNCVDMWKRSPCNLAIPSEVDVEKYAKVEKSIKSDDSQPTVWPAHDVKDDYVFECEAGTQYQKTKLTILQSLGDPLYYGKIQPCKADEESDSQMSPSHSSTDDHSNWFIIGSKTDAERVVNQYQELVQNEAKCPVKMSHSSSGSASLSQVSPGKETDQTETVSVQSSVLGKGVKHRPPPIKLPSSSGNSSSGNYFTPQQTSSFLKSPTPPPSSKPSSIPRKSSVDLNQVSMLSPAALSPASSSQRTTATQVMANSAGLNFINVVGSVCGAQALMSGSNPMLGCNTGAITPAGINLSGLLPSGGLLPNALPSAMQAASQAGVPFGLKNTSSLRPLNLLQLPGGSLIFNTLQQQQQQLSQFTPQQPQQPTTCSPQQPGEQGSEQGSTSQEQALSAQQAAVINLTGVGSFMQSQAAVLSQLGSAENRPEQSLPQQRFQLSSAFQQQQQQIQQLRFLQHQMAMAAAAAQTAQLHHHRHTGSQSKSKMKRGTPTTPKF
# Some of the results follow.
# Experiments:
# Test in all cases: log2 fold change, soluble protein after heating vs DMSO (PISA); higher = thermal stabilisation; K562 lysate, 10 uM; active = over 0.2 and 3.5 SD of the protein, either way, in both replicates (recomputed)
# vemurafenib = compound: CCCS(=O)(=O)Nc1ccc(F)c(C(=O)c2c[nH]c3ncc(-c4ccc(Cl)cc4)cc23)c1F [vemurafenib]
# Procedure, shortened: (§1)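 Soluble protein was defined as the supernatant remaining after 21,000xg for 90 min, following pooling of heated aliquots and adjustment to 0.5% NP-40 at 4°C. Before that, crude K562 extract at 1 mg/mL protein in PBS pH 7.4 with 1 mM MgCl2 was treated with 10 μM compound for 30 min and heated for 3 min across 48°C-58°C. Quantification used TMTpro 16plex LC-MS/MS with channel sums equalised, and values are log-two fold changes in thermal stability relative to solvent controls from duplicates.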
# [1] = compound: CCCS(=O)(=O)Nc1ccc(F)c(C(=O)c2c[nH]c3ncc(Cl)cc23)c1F
# Procedure, shortened: as §1
# barasertib = compound: CCN(CCCOc1ccc2c(Nc3cc(CC(=O)Nc4cccc(F)c4)[nH]n3)ncnc2c1)CCOP(=O)(O)O [barasertib]
# Procedure, shortened: as §1
# [2] = compound: CC[C@@H]1C(=O)N(C)c2cnc(Nc3ccc(C(=O)NC4CCN(C)CC4)cc3OC)nc2N1C1CCCC1
# Procedure, shortened: as §1
# volasertib = compound: CC[C@@H]1C(=O)N(C)c2cnc(Nc3ccc(C(=O)N[C@H]4CC[C@H](N5CCN(CC6CC6)CC5)CC4)cc3OC)nc2N1C(C)C [volasertib]
# Procedure, shortened: as §1
# [3] = compound: CCn1c(C(=O)N(C2CC2)C2CC2)cc2c3c(ncn3C)c(Nc3cc(C)n(C)n3)nc21
# Procedure, shortened: as §1
# [4] = compound: CCn1cc(-c2ccnc3[nH]c(-c4cccc(CN(C)C)c4)cc23)c(-c2ccc(NC(=O)N(C)C)cc2)n1
# Procedure, shortened: as §1
# [5] = compound: CN1CCC(CNc2ccc3ncc(-c4cccc(OC(F)(F)F)c4)n3n2)CC1
# Procedure, shortened: as §1
# saracatinib = compound: CN1CCN(CCOc2cc(OC3CCOCC3)c3c(Nc4c(Cl)ccc5c4OCO5)ncnc3c2)CC1 [saracatinib]
# Procedure, shortened: as §1
# sotrastaurin = compound: CN1CCN(c2nc(C3=C(c4c[nH]c5ccccc45)C(=O)NC3=O)c3ccccc3n2)CC1 [sotrastaurin]
# Procedure, shortened: as §1
Target,log2 fold change (vemurafenib),log2 fold change [1],log2 fold change (barasertib),log2 fold change [2],log2 fold change (volasertib),log2 fold change [3],log2 fold change [4],log2 fold change [5],log2 fold change (saracatinib),log2 fold change (sotrastaurin)
TACO1 (UniProt Q9BSH4),inactive: -0.004,inactive: -0.018,inactive: 0.063,inactive: 0.055,inactive: 0.068,inactive: 0.008,inactive: -0.143,inactive: 0.018,inactive: 0.019,inactive: -0.011
STRN4 isoform 3 (UniProt Q9NRL3),inactive: 0.007,inactive: 0.008,inactive: 0.09,inactive: -0.018,inactive: -0.026,inactive: 0.049,inactive: -0.039,inactive: 0.063,inactive: -0.002,inactive: -0.016
SUGT1 (UniProt Q9Y2Z0),inactive: -0.004,inactive: 0.01,inactive: -0.035,inactive: 0.016,inactive: 0.018,inactive: 0.021,inactive: 0.257,inactive: -0.042,inactive: -0.008,inactive: -0.024
SUPT4H1 (UniProt P63272),inactive: 0.085,inactive: -0.029,inactive: -0.007,inactive: 0.036,inactive: 0.022,inactive: -0.05,inactive: 0.031,inactive: -0.009,inactive: 0.024,inactive: -0.09
TAF1 isoform 4 (UniProt P21675),inactive: 0.07,inactive: -0.047,–,inactive: -0.139,inactive: -0.13,inactive: 0.033,inactive: 0.138,inactive: 0.247,inactive: -0.017,inactive: 0.01
STXBP3 (UniProt O00186),inactive: 0.03,inactive: 0,inactive: 0.004,inactive: -0.005,inactive: -0.046,inactive: 0.017,inactive: 0.128,inactive: -0.065,inactive: 0.016,inactive: -0.016
SUPT7L (UniProt O94864),inactive: -0.009,inactive: -0.023,inactive: -0.029,inactive: -0.006,inactive: -0.008,inactive: 0.048,inactive: -0.029,inactive: 0.044,inactive: 0.206,inactive: -0.024
SYNCRIP isoform 3 (UniProt O60506),inactive: 0.1,inactive: 0.091,inactive: -0.053,inactive: -0.008,inactive: 0.078,inactive: 0.018,inactive: 0.008,inactive: -0.026,–,inactive: 0.04
STIP1 isoform 2 (UniProt P31948),inactive: -0.026,inactive: -0.015,inactive: -0.024,inactive: -0.003,inactive: 0.036,inactive: 0.003,inactive: 0.137,inactive: -0.065,inactive: -0.001,inactive: -0.012
STK26 (UniProt Q9P289),inactive: 0.021,inactive: -0.008,inactive: -0.009,inactive: -0.032,inactive: -0.064,inactive: 0.037,inactive: -0.045,inactive: -0.048,inactive: -0.02,inactive: 0.006
SYMPK (UniProt Q92797),inactive: -0.024,inactive: 0.01,inactive: 0.064,inactive: -0.038,inactive: -0.034,inactive: 0.027,inactive: 0.003,inactive: -0.058,inactive: 0.001,inactive: -0.006
STT3B (UniProt Q8TCJ2),inactive: -0.012,inactive: 0.001,inactive: -0.023,inactive: -0.02,inactive: 0.023,inactive: 0.011,inactive: -0.121,inactive: 0.133,inactive: 0.078,inactive: 0.048
SYK (UniProt P43405),inactive: 0.184,inactive: 0.065,inactive: 0.092,–,inactive: 0.027,inactive: -0.123,active: -0.644,inactive: -0.001,inactive: -0.041,inactive: 0.068
STK11 (UniProt Q15831),inactive: 0.029,inactive: 0.006,inactive: 0.002,inactive: 0.078,inactive: 0.015,inactive: -0.046,inactive: -0.011,inactive: 0.034,inactive: -0.084,inactive: -0.021
SUMO3 isoform 2 (UniProt P55854),inactive: -0.001,inactive: -0.025,inactive: 0.008,inactive: 0.056,inactive: 0.055,inactive: -0.024,inactive: -0.108,inactive: 0.023,inactive: 0,inactive: -0.049
SUMF1 (UniProt Q8NBK3),inactive: 0.215,inactive: 0.055,inactive: 0.005,inactive: 0.112,inactive: 0.037,inactive: -0.036,inactive: -0.013,inactive: 0.068,inactive: -0.001,inactive: -0.071

Target,log2 fold change (vemurafenib),log2 fold change [1],log2 fold change (barasertib),log2 fold change [2],log2 fold change (volasertib),log2 fold change [3],log2 fold change [4],log2 fold change [5],log2 fold change (saracatinib),log2 fold change (sotrastaurin)
TAF4B (UniProt Q92750),inactive: 0.142,inactive: -0.129,inactive: 0.049,inactive: 0.01,inactive: -0.487,inactive: -0.015,inactive: -0.038,inactive: 0.046,inactive: 0.067,inactive: 0.003
STRIP2 (UniProt Q9ULQ0),inactive: -0.074,inactive: -0.002,inactive: -0.007,inactive: -0.018,inactive: -0.02,inactive: -0.085,inactive: 0.079,inactive: -0.068,inactive: -0.037,inactive: 0.033
STK3 isoform 2 (UniProt Q13188),inactive: 0.046,inactive: 0.04,inactive: 0.032,–,inactive: -0.047,inactive: -0.012,inactive: -0.017,inactive: 0.216,inactive: -0.01,inactive: 0.142
TAF11 (UniProt Q15544),inactive: -0.055,inactive: 0.166,–,inactive: 0.14,inactive: 0.037,inactive: 0.086,inactive: -0.028,inactive: 0.086,inactive: -0.021,inactive: 0.026
SWAP70 (UniProt Q9UH65),inactive: 0.016,inactive: 0.002,inactive: 0,inactive: -0.031,inactive: -0.019,inactive: 0.023,inactive: -0.221,inactive: 0.04,inactive: 0.029,inactive: -0.001
TADA1 (UniProt Q96BN2),inactive: 0.06,inactive: 0.076,inactive: -0.008,inactive: 0.04,inactive: 0.003,inactive: 0.051,inactive: -0.075,inactive: -0.012,inactive: 0.105,inactive: -0.051
SULT1A1 (UniProt P50225),inactive: 0.014,inactive: 0.004,inactive: -0.017,inactive: 0.032,inactive: -0.046,inactive: -0.016,inactive: 0.014,inactive: -0.009,inactive: 0.037,inactive: -0.009
TAF15 (UniProt Q92804),inactive: -0.016,inactive: -0.022,inactive: -0.03,inactive: 0.014,inactive: 0.023,inactive: -0.059,inactive: 0.068,inactive: -0.014,inactive: -0.016,inactive: 0.025
TAF5 (UniProt Q15542),inactive: -0.043,inactive: 0.053,inactive: -0.098,–,inactive: -0.07,inactive: -0.092,inactive: 0.256,inactive: 0.044,inactive: -0.079,–
STMN3 (UniProt Q9NZ72),inactive: -0.123,inactive: -0.006,inactive: 0.098,inactive: 0.096,inactive: 0.002,inactive: -0.066,–,–,inactive: 0.053,inactive: 0.009
SUPT5H isoform 2 (UniProt O00267),inactive: 0.211,inactive: 0.107,inactive: 0.024,–,inactive: 0.07,–,–,–,inactive: 0.004,inactive: 0.08
SUPT20H isoform 3 (UniProt Q8NEM7),inactive: -0.034,inactive: 0.087,inactive: 0.013,inactive: 0.065,inactive: -0.095,inactive: -0.118,–,–,inactive: 0.144,inactive: -0.006
SYNE2 isoform 2 (UniProt Q8WXH0),inactive: 0.009,inactive: 0.005,inactive: 0.085,inactive: 0.004,inactive: 0.065,inactive: -0.042,active: -0.966,inactive: 0.371,inactive: -0.054,inactive: 0.035
STRN3 (UniProt H0YJT2),–,–,–,inactive: -0.131,–,–,inactive: 0.301,inactive: -0.185,inactive: -0.014,–
STK19 (UniProt P49842),–,–,–,–,–,–,–,–,inactive: 0.08,inactive: -0.035
